In all, about 33,000 sequences were measured (“E-score (-0.5 to 0.5)”: median about -0.0059, highest 2% from about 0.26 on). The list shows a part of the results.

The assay concerns the target T1, Cin5 (UniProt P40917).
T1 sequence: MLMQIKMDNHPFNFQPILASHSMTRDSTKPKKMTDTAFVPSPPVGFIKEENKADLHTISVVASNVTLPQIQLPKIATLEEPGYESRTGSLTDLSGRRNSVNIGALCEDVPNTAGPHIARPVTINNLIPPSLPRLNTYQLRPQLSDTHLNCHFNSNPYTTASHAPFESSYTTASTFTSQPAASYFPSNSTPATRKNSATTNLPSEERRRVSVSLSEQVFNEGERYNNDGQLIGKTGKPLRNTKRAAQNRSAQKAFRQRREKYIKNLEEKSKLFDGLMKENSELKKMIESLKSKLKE
Description: PBM E-score (8-mer binding enrichment) (E-score (-0.5 to 0.5)); higher = stronger / more preferred TF binding. The conditions noted are these: protein concentration: 100 nM; construct: GST-full length. The method in brief:
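Each ungapped eight-base word and its reverse complement, pooled, received an E-score from the Universal PBM Analysis Suite. Underlying scans, normalised with masliner, recorded fluorescent anti-GST bound to GST-tagged yeast transcription factors. These were applied at about 100-200 nM to universal all-10-mer Agilent arrays double-stranded by primer extension.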
Take ATATACCC: the “PBM E-score” value is 0.132.

For AGTTCTTA, the “PBM E-score” value stood at 0.0779.

In the case of CTATACAG, the “PBM E-score” value is -0.0932.

Regarding CGCACGAG, the “PBM E-score” value is -0.225.

CCCGTCCC: the “PBM E-score” value is -0.206.

CAAGGCTC: the “PBM E-score” value is -0.314.

Turning to CGAGCATA, the “PBM E-score” value was 0.0589.

With GTAACTGA, the “PBM E-score” value was -0.0809.

With AAGTGCCA, the “PBM E-score” value was -0.0194.

For GTTGTGGA, the “PBM E-score” value came to 0.0784.

For the sequence CGAAAAAC, the “PBM E-score” value was -0.0467.

Take GGATGCAA: the “PBM E-score” value is -0.0522.

Consider CATTACAA, for which the “PBM E-score” value worked out at 0.229.

As for AAACTGGA, the “PBM E-score” value is 0.00419.

With CAGTATGG, the “PBM E-score” value is -0.0347.

For the sequence TCAACCGA, the “PBM E-score” value came to 0.15.

Turning to CGATCGTC, the “PBM E-score” value was found to be 0.0376.

Regarding CCACAGTC, the “PBM E-score” value was -0.291.

In the case of CAGCGTAA, the “PBM E-score” value was 0.0543.

In the case of AAACATAT, the “PBM E-score” value amounted to 0.269.

ATAGGGGC: the “PBM E-score” value is -0.068.

Take CCGTGAGC: the “PBM E-score” value is -0.208.

For ACCGTTCC, the “PBM E-score” value stood at 0.0916.

On to AGAGACGA, for which the “PBM E-score” value was 0.0484.

For the sequence GCAGTGGC, the “PBM E-score” value was -0.163.

Regarding CACCAGTA, the “PBM E-score” value was -0.0321.

In the case of AAACGTCG, the “PBM E-score” value is -0.0495.

Turning to AATTATGT, the “PBM E-score” value came to 0.304.

GAACTGGC: the “PBM E-score” value was -0.125.

As for AGAAGAGC, the “PBM E-score” value was -0.111.

With CCGAATCG, the “PBM E-score” value is -0.0869.

Take AGACCACA: the “PBM E-score” value was -0.176.

Consider ACTACGCG, for which the “PBM E-score” value was -0.192.

Regarding GAGAGCTC, the “PBM E-score” value was -0.173.

In the case of AGATCCAG, the “PBM E-score” value turned out to be 0.0424.

For ATCAGTTC, the “PBM E-score” value is -0.0161.

Consider AATCGCGT, for which the “PBM E-score” value came to 0.0962.

As for CTCCACTA, the “PBM E-score” value was -0.0588.

In the case of AGTTGGAA, the “PBM E-score” value was -0.017.

As for AATCGGTA, the “PBM E-score” value is -0.0477.

For TCACCTAA, the “PBM E-score” value worked out at 0.142.

As to GAATGTGA, the “PBM E-score” value was determined as 0.00014.

Take CATTCGCA: the “PBM E-score” value is 0.0372.

For the sequence CCCACCAA, the “PBM E-score” value amounted to 0.0564.

In the case of AAGGCCCT, the “PBM E-score” value was -0.136.

For CTCAAAGC, the “PBM E-score” value is -0.0355.

Regarding AGTCGCAA, the “PBM E-score” value is 0.201.

Regarding ATTAATAG, the “PBM E-score” value amounted to 0.272.

Consider AGCGTACG, for which the “PBM E-score” value is -0.0747.

Take AGGGTCAT: the “PBM E-score” value was -0.123.

Turning to AACGTCGT, the “PBM E-score” value worked out at 0.022.

With GTGTAGTA, the “PBM E-score” value is 0.181.

As to CTGGCTGA, the “PBM E-score” value is -0.0743.

As to ACCTTAGC, the “PBM E-score” value came to 0.122.

In the case of CCGTAAGA, the “PBM E-score” value is -0.122.

For CTAGAACA, the “PBM E-score” value is -0.0309.

With AACCCCGA, the “PBM E-score” value amounted to 0.0362.

For TGAGCGAA, the “PBM E-score” value amounted to 0.127.

For the sequence GGGCCCCC, the “PBM E-score” value was -0.478.

Turning to TGGTCCAA, the “PBM E-score” value was -0.157.

CTAGGGAG: the “PBM E-score” value is -0.127.

GACCTAAA: the “PBM E-score” value is -0.0385.

As to AGGTAGGA, the “PBM E-score” value is -0.0926.

Regarding GAAAGCAA, the “PBM E-score” value turned out to be 0.102.

On to ACACGATA, for which the “PBM E-score” value is -0.0616.

Turning to GTTAGACA, the “PBM E-score” value came out at 0.101.

In the case of AACGCGAA, the “PBM E-score” value was determined as 0.281.

Turning to GTCGAGTA, the “PBM E-score” value was determined as 0.114.

For ACGCCGCC, the “PBM E-score” value was -0.184.

Take AGTGAGTA: the “PBM E-score” value is 0.284.

Take CACTTTTA: the “PBM E-score” value is -0.0251.

As for CGCCTCAA, the “PBM E-score” value was -0.11.

In the case of AATGCGTG, the “PBM E-score” value was 0.0645.

As to AATCCGGA, the “PBM E-score” value was determined as 0.234.

For CGTGTGTA, the “PBM E-score” value came to 0.124.

For the sequence ATAACTAT, the “PBM E-score” value came to 0.176.

As for GGCATGAC, the “PBM E-score” value is -0.166.

As to TACTAATA, the “PBM E-score” value amounted to 0.193.

Regarding CGGTGACG, the “PBM E-score” value is -0.0802.

On to GCGCGCAC, for which the “PBM E-score” value worked out at 0.0199.

For CTCATCTC, the “PBM E-score” value stood at 0.141.

Regarding CTAGTAGC, the “PBM E-score” value was -0.105.

As for CCAGCGGC, the “PBM E-score” value was -0.0378.

Take GCCCAGAA: the “PBM E-score” value is -0.0597.

Consider CCTTAGCG, for which the “PBM E-score” value was -0.0913.

Consider AAGGTCTA, for which the “PBM E-score” value was -0.0945.

AATCGCAT: the “PBM E-score” value came out at 0.192.

In the case of ATTGAAGC, the “PBM E-score” value is -0.117.

In the case of TATTTGAA, the “PBM E-score” value came to 0.124.

For CCAACACA, the “PBM E-score” value was found to be 0.0655.

With CTTAGACA, the “PBM E-score” value was -0.202.

Take ACTCATAC: the “PBM E-score” value worked out at 0.152.

With CCTGCTCA, the “PBM E-score” value was -0.177.

For CCGCTGAA, the “PBM E-score” value is -0.00931.

With ACTACGAG, the “PBM E-score” value was 0.0298.

Turning to GCCTTGAC, the “PBM E-score” value was -0.173.

With AAAAAGGT, the “PBM E-score” value came to 0.0712.

Regarding AAGTAACA, the “PBM E-score” value is 0.316.

For AGTTATTC, the “PBM E-score” value was determined as 0.101.

As for CTGGGGAC, the “PBM E-score” value was -0.215.

In the case of GGGGTACC, the “PBM E-score” value was -0.32.

Turning to ATACAGTG, the “PBM E-score” value is 0.0803.

Regarding ACTTGGTA, the “PBM E-score” value was 0.0366.

In the case of CCATACGC, the “PBM E-score” value was 0.168.

Consider AGTGGTTA, for which the “PBM E-score” value worked out at 0.098.

In the case of AGGGTAGG, the “PBM E-score” value is -0.0583.

AAGCCTTA: the “PBM E-score” value was -0.0493.

As to GTCGTGCA, the “PBM E-score” value is -0.0492.

Consider AAAGACTG, for which the “PBM E-score” value is -0.182.

As for GCGGCGAA, the “PBM E-score” value was 0.0245.

For the origin of these results see the supplement of paper PMC3334620.
